The values below come from publication doi:10.1101/2020.10.07.329979.

The target in the assay is T1, FBN2 fused to the N-terminal half of YFP (Arabidopsis thaliana) (UniProt O82291).
T1 sequence: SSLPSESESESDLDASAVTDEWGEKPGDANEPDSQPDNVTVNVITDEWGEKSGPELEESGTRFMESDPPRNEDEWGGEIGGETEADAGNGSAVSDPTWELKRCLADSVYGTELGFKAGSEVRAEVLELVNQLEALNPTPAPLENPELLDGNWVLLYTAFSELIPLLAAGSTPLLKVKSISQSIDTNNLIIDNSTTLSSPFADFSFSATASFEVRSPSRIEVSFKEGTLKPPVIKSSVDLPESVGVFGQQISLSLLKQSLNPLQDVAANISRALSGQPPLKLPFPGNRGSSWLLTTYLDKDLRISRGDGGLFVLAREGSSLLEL
Put plainly: split reporter.

No constants are given. Whether binding was seen depends on the method and setting. In cells and extracts the contact can be indirect. Binding can be weak; no strength is given. Sequences can lack the tags named with a protein.

As to “APE1 fused to the C-terminal moiety of CFP (from UniProt Q2HIR7)”, the binding result is listed as “binds”.
